PubChem BioAssay AID1259254 | NCATS | 2017
In all, the deposit lists about 59,000 reagents; below is an unselected part. About 1,550 of them (2.6%) were called active. 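G2 share is only a proxy for re-replication; each gene was hit by three separate siRNAs, and active genes were retested.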 Reagents against one gene are numbered here. Not all columns of the deposit are shown. No sequences are given here. The record does not give: the amount of reagent.

- Purpose: 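Gene knock-downs that lead to re-replication, shown by excess G2 DNA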 (primary screen)
- Cells: human HCT116 colorectal cancer cells
- Reagents: single siRNA against human genes
- Timing: 3 days
- Detection: 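Nuclei stained with Hoechst and imaged; cell-cycle phase assigned by DNA content; G2 share scaled per plate, non-targeting siRNA 0%, GMNN siRNA 100%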
- Direction: G2 robust z-score: higher = more G2 cells, more excess DNA replication
- Call rule: 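An siRNA counts as active if its G2 robust z-score lies at least 5 MADs above the screen median; here such calls match roughly 38% of GMNN control or more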

gene knocked down | reagent no. | G2 robust z-score | Outcome
PTS | 1 | 8.16 | active
PTS | 2 | -1.06 | inactive
PTS | 3 | -0.00492 | inactive
RPE | 1 | 1.08 | inactive
RPE | 2 | -1.32 | inactive
RPE | 3 | -0.174 | inactive
UNC45A | 1 | -0.667 | inactive
UNC45A | 2 | 0.164 | inactive
UNC45A | 3 | 0.104 | inactive
EMC7 | 1 | -1.05 | inactive
EMC7 | 2 | 0.555 | inactive
EMC7 | 3 | -0.742 | inactive

Active calls, of those listed so far:
gene knocked down | reagent no. | G2 robust z-score | Outcome
PTS | 1 | 8.16 | active

Additional entries follow:
gene knocked down | reagent no. | G2 robust z-score | Outcome
KCTD3 | 1 | 0.337 | inactive
KCTD3 | 2 | 3.68 | inactive
KCTD3 | 3 | -0.0715 | inactive
ZPLD1 | 1 | 0.419 | inactive
ZPLD1 | 2 | -0.392 | inactive
ZPLD1 | 3 | -0.171 | inactive
MON1A | 1 | 0.165 | inactive
MON1A | 2 | 0.701 | inactive
MON1A | 3 | -0.189 | inactive
PTEN | 1 | -0.685 | inactive
PTEN | 2 | 0.0798 | inactive
PTEN | 3 | -0.185 | inactive
IL1RAPL2 | 1 | -0.311 | inactive
IL1RAPL2 | 2 | -0.289 | inactive
IL1RAPL2 | 3 | -0.352 | inactive
DPF2 | 1 | -1.22 | inactive
DPF2 | 2 | 2.47 | inactive
DPF2 | 3 | 1.68 | inactive
